Reference: the supplement of paper PMC10849652
This is one part of the list.

By UniProt entry, the sequences of proteins in these tests, tags left out. Where a name states a change or a piece, a line headed by the entry shows the natural chain unless it says otherwise.
UniProt P07737, whole entry, looked up: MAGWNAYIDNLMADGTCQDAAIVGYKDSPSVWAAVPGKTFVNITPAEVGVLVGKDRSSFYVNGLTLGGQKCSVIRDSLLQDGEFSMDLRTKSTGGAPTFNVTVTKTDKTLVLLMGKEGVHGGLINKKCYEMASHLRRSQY
UniProt P08237: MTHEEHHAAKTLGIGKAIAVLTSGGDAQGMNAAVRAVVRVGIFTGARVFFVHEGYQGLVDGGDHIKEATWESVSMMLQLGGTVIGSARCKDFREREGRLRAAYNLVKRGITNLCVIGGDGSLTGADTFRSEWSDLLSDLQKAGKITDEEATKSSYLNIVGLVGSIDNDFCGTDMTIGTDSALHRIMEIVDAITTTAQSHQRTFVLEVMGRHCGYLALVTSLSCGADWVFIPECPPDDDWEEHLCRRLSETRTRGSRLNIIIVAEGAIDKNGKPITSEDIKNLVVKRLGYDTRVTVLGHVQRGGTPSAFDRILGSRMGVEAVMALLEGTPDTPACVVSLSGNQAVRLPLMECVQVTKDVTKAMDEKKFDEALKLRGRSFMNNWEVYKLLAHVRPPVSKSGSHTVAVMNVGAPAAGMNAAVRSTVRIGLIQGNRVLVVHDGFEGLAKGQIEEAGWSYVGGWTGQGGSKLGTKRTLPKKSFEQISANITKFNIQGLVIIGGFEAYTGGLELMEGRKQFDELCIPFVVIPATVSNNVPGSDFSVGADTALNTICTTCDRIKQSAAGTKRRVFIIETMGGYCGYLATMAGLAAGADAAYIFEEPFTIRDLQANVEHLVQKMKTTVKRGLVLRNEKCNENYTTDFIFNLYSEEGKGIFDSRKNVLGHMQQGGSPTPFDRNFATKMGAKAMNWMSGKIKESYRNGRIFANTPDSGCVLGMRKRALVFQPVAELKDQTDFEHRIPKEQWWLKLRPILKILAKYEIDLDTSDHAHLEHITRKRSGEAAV
UniProt Q96S52: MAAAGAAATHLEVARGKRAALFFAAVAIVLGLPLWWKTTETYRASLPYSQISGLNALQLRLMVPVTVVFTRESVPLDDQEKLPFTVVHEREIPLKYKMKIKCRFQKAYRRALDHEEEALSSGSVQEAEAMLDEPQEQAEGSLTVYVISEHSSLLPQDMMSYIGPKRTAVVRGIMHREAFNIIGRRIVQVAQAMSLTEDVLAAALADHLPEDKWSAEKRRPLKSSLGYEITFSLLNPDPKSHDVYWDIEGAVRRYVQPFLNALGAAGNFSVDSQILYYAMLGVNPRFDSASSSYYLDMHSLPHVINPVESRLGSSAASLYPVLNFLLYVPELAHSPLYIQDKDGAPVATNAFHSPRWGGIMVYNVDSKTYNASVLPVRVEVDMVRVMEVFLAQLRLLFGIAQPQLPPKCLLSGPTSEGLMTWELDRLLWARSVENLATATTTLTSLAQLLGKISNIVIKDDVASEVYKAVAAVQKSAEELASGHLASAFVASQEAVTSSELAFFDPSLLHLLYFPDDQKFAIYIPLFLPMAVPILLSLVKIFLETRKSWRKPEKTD
UniProt Q8IWS0: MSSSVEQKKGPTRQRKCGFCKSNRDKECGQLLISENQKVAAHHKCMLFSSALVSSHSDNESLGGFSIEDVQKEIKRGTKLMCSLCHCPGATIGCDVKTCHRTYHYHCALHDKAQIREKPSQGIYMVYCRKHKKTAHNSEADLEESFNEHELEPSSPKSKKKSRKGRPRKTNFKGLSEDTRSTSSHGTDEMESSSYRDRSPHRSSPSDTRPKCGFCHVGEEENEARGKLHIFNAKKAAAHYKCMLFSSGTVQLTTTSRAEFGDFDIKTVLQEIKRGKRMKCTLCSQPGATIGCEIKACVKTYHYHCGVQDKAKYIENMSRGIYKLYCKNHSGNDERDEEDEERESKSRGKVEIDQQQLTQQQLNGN
UniProt Q8N0Y7: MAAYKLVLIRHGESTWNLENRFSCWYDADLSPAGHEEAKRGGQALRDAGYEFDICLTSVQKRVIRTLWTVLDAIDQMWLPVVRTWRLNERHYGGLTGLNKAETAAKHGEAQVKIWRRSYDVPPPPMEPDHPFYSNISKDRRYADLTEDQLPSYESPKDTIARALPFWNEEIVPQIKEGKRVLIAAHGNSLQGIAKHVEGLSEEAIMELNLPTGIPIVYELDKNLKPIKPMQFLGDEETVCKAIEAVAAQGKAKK
UniProt P18669: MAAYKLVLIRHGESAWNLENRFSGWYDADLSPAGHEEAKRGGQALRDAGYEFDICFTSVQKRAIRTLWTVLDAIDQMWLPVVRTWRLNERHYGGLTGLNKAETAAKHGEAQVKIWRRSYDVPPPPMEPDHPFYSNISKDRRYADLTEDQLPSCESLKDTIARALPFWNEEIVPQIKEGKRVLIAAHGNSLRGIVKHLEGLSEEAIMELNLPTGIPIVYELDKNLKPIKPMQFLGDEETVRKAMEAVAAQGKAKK
UniProt Q99570, whole entry, looked up: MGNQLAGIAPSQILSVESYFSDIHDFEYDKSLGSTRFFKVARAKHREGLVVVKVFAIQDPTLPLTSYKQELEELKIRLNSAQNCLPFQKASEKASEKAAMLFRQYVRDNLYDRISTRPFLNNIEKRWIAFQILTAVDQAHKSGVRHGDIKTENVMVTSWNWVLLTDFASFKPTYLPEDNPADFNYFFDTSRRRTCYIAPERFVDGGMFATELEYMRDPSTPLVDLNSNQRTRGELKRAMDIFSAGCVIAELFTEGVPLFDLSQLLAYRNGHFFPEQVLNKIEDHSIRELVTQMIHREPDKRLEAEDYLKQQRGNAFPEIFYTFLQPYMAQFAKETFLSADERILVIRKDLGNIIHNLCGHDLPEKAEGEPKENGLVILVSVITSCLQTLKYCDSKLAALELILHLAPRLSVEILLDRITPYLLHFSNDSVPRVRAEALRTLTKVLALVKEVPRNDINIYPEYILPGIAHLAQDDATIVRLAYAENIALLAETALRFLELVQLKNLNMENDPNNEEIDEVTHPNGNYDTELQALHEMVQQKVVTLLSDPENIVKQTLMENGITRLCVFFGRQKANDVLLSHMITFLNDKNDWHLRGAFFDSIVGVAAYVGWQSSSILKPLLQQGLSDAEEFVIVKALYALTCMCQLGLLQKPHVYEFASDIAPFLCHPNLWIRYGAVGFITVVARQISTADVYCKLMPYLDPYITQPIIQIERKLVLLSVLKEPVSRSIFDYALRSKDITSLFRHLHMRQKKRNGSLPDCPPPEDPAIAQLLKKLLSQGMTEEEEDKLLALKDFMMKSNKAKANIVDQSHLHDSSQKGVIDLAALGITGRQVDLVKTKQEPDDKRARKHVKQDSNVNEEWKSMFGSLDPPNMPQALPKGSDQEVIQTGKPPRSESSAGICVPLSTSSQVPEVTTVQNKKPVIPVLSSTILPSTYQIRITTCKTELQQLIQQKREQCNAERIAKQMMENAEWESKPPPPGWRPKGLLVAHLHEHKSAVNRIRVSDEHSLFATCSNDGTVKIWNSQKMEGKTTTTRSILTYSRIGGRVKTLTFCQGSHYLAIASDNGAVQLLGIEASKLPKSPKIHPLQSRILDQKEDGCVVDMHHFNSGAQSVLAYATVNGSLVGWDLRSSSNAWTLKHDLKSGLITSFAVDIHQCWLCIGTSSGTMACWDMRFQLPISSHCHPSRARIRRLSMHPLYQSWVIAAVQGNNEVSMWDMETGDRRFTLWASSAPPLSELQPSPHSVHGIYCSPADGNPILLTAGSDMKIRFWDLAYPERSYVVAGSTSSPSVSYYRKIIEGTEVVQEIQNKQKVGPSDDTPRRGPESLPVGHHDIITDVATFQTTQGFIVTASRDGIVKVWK
UniProt Q93100: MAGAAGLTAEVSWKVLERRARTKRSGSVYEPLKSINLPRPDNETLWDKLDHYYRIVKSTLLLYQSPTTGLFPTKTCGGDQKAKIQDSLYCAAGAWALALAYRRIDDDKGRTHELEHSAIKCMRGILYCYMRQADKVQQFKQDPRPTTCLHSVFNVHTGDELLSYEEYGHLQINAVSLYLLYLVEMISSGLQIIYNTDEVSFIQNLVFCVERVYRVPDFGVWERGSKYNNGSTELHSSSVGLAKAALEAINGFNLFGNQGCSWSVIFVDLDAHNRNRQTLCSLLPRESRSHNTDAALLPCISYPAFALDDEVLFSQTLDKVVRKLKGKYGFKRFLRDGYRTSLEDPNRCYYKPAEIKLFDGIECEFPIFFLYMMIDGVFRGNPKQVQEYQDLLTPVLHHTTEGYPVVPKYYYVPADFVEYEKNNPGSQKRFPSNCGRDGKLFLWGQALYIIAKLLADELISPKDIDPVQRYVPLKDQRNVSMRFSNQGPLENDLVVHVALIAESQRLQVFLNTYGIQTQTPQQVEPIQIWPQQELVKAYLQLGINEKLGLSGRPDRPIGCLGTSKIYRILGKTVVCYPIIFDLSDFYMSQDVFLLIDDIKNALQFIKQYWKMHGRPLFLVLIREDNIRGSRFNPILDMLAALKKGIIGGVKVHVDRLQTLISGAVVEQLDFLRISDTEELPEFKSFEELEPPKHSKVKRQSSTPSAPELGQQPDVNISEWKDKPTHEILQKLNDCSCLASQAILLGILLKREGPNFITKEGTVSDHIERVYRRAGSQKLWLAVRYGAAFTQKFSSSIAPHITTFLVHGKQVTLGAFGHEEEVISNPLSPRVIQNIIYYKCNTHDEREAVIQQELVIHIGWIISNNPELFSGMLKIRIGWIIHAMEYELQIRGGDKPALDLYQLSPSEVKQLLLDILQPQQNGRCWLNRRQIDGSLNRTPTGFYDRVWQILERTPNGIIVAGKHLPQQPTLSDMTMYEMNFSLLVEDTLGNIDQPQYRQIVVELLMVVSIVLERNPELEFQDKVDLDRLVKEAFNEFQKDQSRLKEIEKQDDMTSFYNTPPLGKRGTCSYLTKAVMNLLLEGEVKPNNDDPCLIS
UniProt Q99623, whole entry, looked up: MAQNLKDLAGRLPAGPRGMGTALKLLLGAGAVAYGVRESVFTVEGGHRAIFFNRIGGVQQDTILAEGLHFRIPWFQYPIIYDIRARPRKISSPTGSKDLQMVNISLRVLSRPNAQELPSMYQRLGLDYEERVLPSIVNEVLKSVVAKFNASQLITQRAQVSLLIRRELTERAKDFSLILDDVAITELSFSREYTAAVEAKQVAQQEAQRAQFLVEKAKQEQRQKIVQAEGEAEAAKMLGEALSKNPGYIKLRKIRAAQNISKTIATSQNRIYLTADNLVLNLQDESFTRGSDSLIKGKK
UniProt Q01813: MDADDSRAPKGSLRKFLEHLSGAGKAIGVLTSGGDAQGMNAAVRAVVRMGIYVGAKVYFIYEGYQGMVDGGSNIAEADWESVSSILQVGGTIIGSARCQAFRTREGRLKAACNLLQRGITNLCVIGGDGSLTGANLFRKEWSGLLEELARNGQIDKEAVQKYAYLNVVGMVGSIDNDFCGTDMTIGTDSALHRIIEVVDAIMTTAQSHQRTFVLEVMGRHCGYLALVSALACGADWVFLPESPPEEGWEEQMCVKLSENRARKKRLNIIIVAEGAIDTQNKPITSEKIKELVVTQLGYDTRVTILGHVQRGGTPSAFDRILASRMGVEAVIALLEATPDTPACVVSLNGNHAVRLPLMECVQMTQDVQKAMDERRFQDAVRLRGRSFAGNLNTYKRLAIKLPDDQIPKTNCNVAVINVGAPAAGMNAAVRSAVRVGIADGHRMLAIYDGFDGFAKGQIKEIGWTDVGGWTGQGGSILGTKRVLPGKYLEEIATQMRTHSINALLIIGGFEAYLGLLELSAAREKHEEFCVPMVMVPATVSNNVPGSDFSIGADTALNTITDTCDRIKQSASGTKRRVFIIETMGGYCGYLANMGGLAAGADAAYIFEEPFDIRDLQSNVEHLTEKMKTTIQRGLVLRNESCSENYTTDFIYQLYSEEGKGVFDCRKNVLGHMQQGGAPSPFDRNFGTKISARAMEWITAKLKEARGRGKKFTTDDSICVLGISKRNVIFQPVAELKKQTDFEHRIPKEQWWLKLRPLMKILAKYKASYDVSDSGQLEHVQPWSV
UniProt P40855: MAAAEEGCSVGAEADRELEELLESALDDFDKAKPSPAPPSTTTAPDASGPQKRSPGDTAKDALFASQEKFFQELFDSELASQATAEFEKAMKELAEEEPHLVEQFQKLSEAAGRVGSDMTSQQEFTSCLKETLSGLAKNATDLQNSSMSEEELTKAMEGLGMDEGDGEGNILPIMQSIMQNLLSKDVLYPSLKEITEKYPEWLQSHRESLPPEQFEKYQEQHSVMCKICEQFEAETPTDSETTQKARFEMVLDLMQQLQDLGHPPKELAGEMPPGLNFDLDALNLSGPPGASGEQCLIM
UniProt Q99471, whole entry, looked up: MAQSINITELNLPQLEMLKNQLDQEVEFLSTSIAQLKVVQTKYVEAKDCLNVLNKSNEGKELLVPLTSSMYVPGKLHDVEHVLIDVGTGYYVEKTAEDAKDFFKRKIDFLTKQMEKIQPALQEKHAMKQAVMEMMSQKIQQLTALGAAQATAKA

Columns and labels:
Experiment in all cases: log2 fold change, soluble protein after heating vs DMSO (PISA); higher = thermal stabilisation; K562 cells, 10 uM, 30 min; active = over 0.2 and 3.5 SD of the protein, either way, in both replicates (recomputed)
saracatinib = compound: CN1CCN(CCOc2cc(OC3CCOCC3)c3c(Nc4c(Cl)ccc5c4OCO5)ncnc3c2)CC1 [saracatinib]
Method in brief: (§1)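 For each measurement, 10 μM compound was applied for 30 min to K562 cells at 2×10^6 cells/mL. Aliquots were heated for 3 min across 48°C-58°C, pooled, and extracted in PBS with 0.5% NP-40 at 4°C; the supernatant after 21,000xg for 90 min was soluble protein. This was quantified by TMTpro 16plex LC-MS/MS with channel sums equalised, and thermal stability was reported relative to control samples from duplicates, on a log2 fold-change scale.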

sotrastaurin = compound: CN1CCN(c2nc(C3=C(c4c[nH]c5ccccc45)C(=O)NC3=O)c3ccccc3n2)CC1 [sotrastaurin]
Method in brief: as §1

alvocidib = compound: CN1CC[C@H](c2c(O)cc(O)c3c(=O)cc(-c4ccccc4Cl)oc23)[C@H](O)C1 [alvocidib]
Method in brief: as §1

Tubastatin A = compound: CN1CCc2c(c3ccccc3n2Cc2ccc(C(=O)NO)cc2)C1 [Tubastatin A]
Method in brief: as §1

[1] = compound: CNC(=O)C1=CC=CC=C1NC2=NC(=NC=C2Cl)NC3=C(C=C(C=C3)N4CCOCC4)OC
Method in brief: as §1

defactinib = compound: CNC(=O)c1ccc(Nc2ncc(C(F)(F)F)c(NCc3nccnc3N(C)S(C)(=O)=O)n2)cc1 [defactinib]
Method in brief: as §1

rucaparib = compound: CNCc1ccc(-c2[nH]c3cc(F)cc4c3c2CCNC4=O)cc1 [rucaparib]
Method in brief: as §1

[2] = compound: CNc1nc(-c2ccc3c(N)n[nH]c3c2)cc(N2C[C@@H](C(=O)NC3CCCCC3)CC[C@H]2C)n1
Method in brief: as §1

encorafenib = compound: COC(=O)N[C@@H](C)CNc1nccc(-c2cn(C(C)C)nc2-c2cc(Cl)cc(NS(C)(=O)=O)c2F)n1 [encorafenib]
Method in brief: as §1

[3] = compound: COC(=O)[C@H](CCSC)NC(=O)C1=C(C=C(C=C1)NC[C@H](CS)N)C2=CC=CC=C2
Method in brief: as §1

[4] = compound: COC1=CC=C(C=C1)CN2C=CC3=C2C=C(C=C3)C(=O)NO
Method in brief: as §1

filanesib = compound: CON(C)C(=O)N1N=C(c2cc(F)ccc2F)S[C@@]1(CCCN)c1ccccc1 [filanesib]
Method in brief: as §1

zotarolimus = compound: CO[C@H]1C[C@@H]2CC[C@@H](C)[C@@](O)(O2)C(=O)C(=O)N2CCCC[C@H]2C(=O)O[C@H]([C@H](C)C[C@@H]2CC[C@H](n3cnnn3)[C@H](OC)C2)CC(=O)[C@H](C)/C=C(\C)[C@@H](O)[C@@H](OC)C(=O)[C@H](C)C[C@H](C)/C=C/C=C/C=C/1C [zotarolimus]
Method in brief: as §1

idasanutlin = compound: COc1cc(C(=O)O)ccc1NC(=O)[C@@H]1N[C@@H](CC(C)(C)C)[C@](C#N)(c2ccc(Cl)cc2F)[C@H]1c1cccc(Cl)c1F [idasanutlin]
Method in brief: as §1

alisertib = compound: COc1cc(Nc2ncc3c(n2)-c2ccc(Cl)cc2C(c2c(F)cccc2OC)=NC3)ccc1C(=O)O [alisertib]
Method in brief: as §1

[5] = compound: COc1cc2nc(-c3cc(F)ccc3O)nc(N[C@@H]3CNC[C@H]3C(C)(C)O)c2cc1OC
Method in brief: as §1

gefitinib = compound: COc1cc2ncnc(Nc3ccc(F)c(Cl)c3)c2cc1OCCCN1CCOCC1 [gefitinib]
Method in brief: as §1

[6] = compound: COc1cccc2cc(-c3nc([C@H]4CC[C@H](C(=O)O)CC4)n4ncnc(N)c34)[nH]c12
Method in brief: as §1

lapatinib = compound: CS(=O)(=O)CCNCc1ccc(-c2ccc3ncnc(Nc4ccc(OCc5cccc(F)c5)c(Cl)c4)c3c2)o1 [lapatinib]
Method in brief: as §1

pictilisib = compound: CS(=O)(=O)N1CCN(Cc2cc3nc(-c4cccc5[nH]ncc45)nc(N4CCOCC4)c3s2)CC1 [pictilisib]
Method in brief: as §1

Measured: log2 fold change

PICALM (UniProt Q13492)
inactive: saracatinib 0.021 | sotrastaurin 0.031 | alvocidib -0.041 | Tubastatin A 0.01 | [1] -0.025 | defactinib -0.034 | rucaparib -0.011 | [2] -0.036 | encorafenib 0.002 | [3] 0.013 | [4] -0.03 | filanesib -0.042 | zotarolimus 0.012 | idasanutlin -0.057 | alisertib -0.032 | [5] -0.002 | gefitinib -0.002 | [6] 0.049 | lapatinib -0.012 | pictilisib 0.027

PFN1 (UniProt P07737)
inactive: saracatinib 0.042 | sotrastaurin -0.022 | alvocidib -0.05 | Tubastatin A -0.045 | [1] -0.01 | defactinib 0.02 | rucaparib -0.039 | [2] -0.004 | encorafenib -0.002 | [3] -0.002 | [4] 0.01 | filanesib -0.064 | zotarolimus 0.014 | idasanutlin -0.046 | alisertib -0.04 | [5] -0.008 | gefitinib -0.001 | [6] 0.011 | lapatinib -0.023 | pictilisib 0.018

PI4KA (UniProt P42356)
inactive: saracatinib -0.056 | sotrastaurin -0.134 | alvocidib 0.083 | Tubastatin A 0.062 | [1] -0.001 | defactinib -0.014 | rucaparib 0.184 | [2] -0.006 | encorafenib 0.106 | [3] -0.005 | [4] -0.01 | filanesib 0.113 | zotarolimus 0.021 | idasanutlin -0.01 | alisertib -0.029 | [5] 0.02 | gefitinib 0.082 | [6] -0.162 | lapatinib 0.069 | pictilisib 0.164

PFKM isoform 3 (UniProt P08237)
inactive: saracatinib 0.025 | sotrastaurin 0.034 | alvocidib -0.005 | Tubastatin A -0.03 | [1] -0.023 | defactinib -0.018 | rucaparib -0.046 | [2] -0.006 | encorafenib -0.022 | [3] -0.006 | [4] -0.046 | filanesib -0.025 | zotarolimus -0.027 | idasanutlin -0.037 | alisertib -0.034 | [5] 0 | gefitinib -0.011 | [6] 0.092 | lapatinib -0.013 | pictilisib -0.034

PIGS (UniProt Q96S52)
inactive: saracatinib -0.037 | sotrastaurin 0.023 | alvocidib -0.039 | Tubastatin A -0.007 | [1] 0.016 | defactinib 0.023 | rucaparib -0.037 | [2] 0.05 | encorafenib 0.016 | [3] -0.024 | [4] -0.012 | filanesib 0.02 | zotarolimus -0.005 | idasanutlin -0.036 | alisertib -0.027 | [5] 0.018 | gefitinib -0.008 | [6] -0.01 | lapatinib 0.044 | pictilisib -0.013

PHF6 (UniProt Q8IWS0)
inactive: saracatinib -0.081 | sotrastaurin 0.012 | alvocidib 0.187 | Tubastatin A 0.054 | [1] 0.042 | defactinib 0.144 | rucaparib 0.27 | [2] 0.047 | encorafenib 0.145 | [3] -0.023 | [4] -0.1 | filanesib 0.269 | zotarolimus 0.041 | idasanutlin 0.18 | alisertib -0.031 | [5] -0.026 | gefitinib -0.049 | [6] -0.188 | lapatinib 0.12 | pictilisib -0.058

PGAM4 (UniProt Q8N0Y7)
inactive: saracatinib 0.027 | sotrastaurin 0.035 | alvocidib -0.009 | Tubastatin A -0.026 | [1] -0.044 | defactinib -0.001 | rucaparib 0.004 | [2] -0.014 | encorafenib -0.058 | [3] 0.033 | [4] -0.039 | filanesib -0.018 | zotarolimus -0.016 | idasanutlin -0.025 | alisertib -0.042 | [5] -0.025 | gefitinib -0.022 | [6] 0.039 | lapatinib -0.021 | pictilisib -0.016

PGAM1 (UniProt P18669)
inactive: saracatinib 0.046 | sotrastaurin 0.022 | alvocidib -0.043 | Tubastatin A -0.005 | [1] -0.001 | defactinib -0.014 | rucaparib 0.026 | [2] 0.009 | encorafenib -0.027 | [3] 0.018 | [4] -0.019 | filanesib -0.031 | zotarolimus -0.003 | idasanutlin 0.002 | alisertib -0.043 | [5] -0.021 | gefitinib 0.019 | [6] 0.033 | lapatinib -0.004 | pictilisib 0.074

PIK3R4 (UniProt Q99570)
inactive: saracatinib 0.01 | sotrastaurin 0 | alvocidib -0.031 | Tubastatin A -0.004 | [1] -0.017 | defactinib -0.037 | rucaparib 0.002 | [2] -0.01 | encorafenib -0.005 | [3] 0.003 | [4] -0.007 | filanesib 0.078 | zotarolimus -0.031 | idasanutlin -0.08 | alisertib -0.009 | [5] 0.162 | gefitinib 0.025 | [6] -0.044 | lapatinib -0.004 | pictilisib -0.027

Two consecutive records out of the list so far:
PFKM isoform 3 (UniProt P08237)
inactive: saracatinib 0.025 | sotrastaurin 0.034 | alvocidib -0.005 | Tubastatin A -0.03 | [1] -0.023 | defactinib -0.018 | rucaparib -0.046 | [2] -0.006 | encorafenib -0.022 | [3] -0.006 | [4] -0.046 | filanesib -0.025 | zotarolimus -0.027 | idasanutlin -0.037 | alisertib -0.034 | [5] 0 | gefitinib -0.011 | [6] 0.092 | lapatinib -0.013 | pictilisib -0.034

PIGS (UniProt Q96S52)
inactive: saracatinib -0.037 | sotrastaurin 0.023 | alvocidib -0.039 | Tubastatin A -0.007 | [1] 0.016 | defactinib 0.023 | rucaparib -0.037 | [2] 0.05 | encorafenib 0.016 | [3] -0.024 | [4] -0.012 | filanesib 0.02 | zotarolimus -0.005 | idasanutlin -0.036 | alisertib -0.027 | [5] 0.018 | gefitinib -0.008 | [6] -0.01 | lapatinib 0.044 | pictilisib -0.013

The list goes on.

PHKB isoform 3 (UniProt Q93100)
inactive: saracatinib -0.081 | sotrastaurin 0.009 | alvocidib 0.061 | Tubastatin A -0.014 | [1] 0.065 | defactinib -0.015 | rucaparib 0.039 | [2] 0.016 | encorafenib 0.034 | [3] -0.028 | [4] -0.03 | filanesib 0.071 | zotarolimus 0.004 | idasanutlin -0.053 | alisertib 0.003 | [5] 0.16 | gefitinib -0.035 | [6] 0.082 | lapatinib 0.022 | pictilisib -0.124

PHB2 (UniProt Q99623)
inactive: saracatinib 0.003 | sotrastaurin 0.022 | alvocidib 0.011 | Tubastatin A -0.02 | [1] 0.012 | defactinib 0.01 | rucaparib -0.037 | [2] -0.043 | encorafenib -0.019 | [3] 0.028 | [4] -0.003 | filanesib -0.04 | zotarolimus -0.03 | idasanutlin -0.02 | alisertib -0.047 | [5] -0.007 | gefitinib 0.002 | [6] 0.041 | lapatinib 0.02 | pictilisib -0.002

PGM2L1 (UniProt Q6PCE3)
inactive: saracatinib 0.086 | sotrastaurin 0.032 | alvocidib 0.015 | Tubastatin A -0.029 | [1] -0.008 | defactinib -0.006 | rucaparib -0.022 | [2] -0.037 | encorafenib -0.008 | [3] 0.043 | [4] -0.004 | filanesib -0.056 | zotarolimus -0.03 | idasanutlin -0.004 | alisertib -0.017 | [5] 0.06 | gefitinib 0.027 | [6] 0.054 | lapatinib -0.017 | pictilisib 0.016

PFKP (UniProt Q01813)
inactive: saracatinib 0.009 | sotrastaurin 0.019 | alvocidib -0.012 | Tubastatin A -0.004 | [1] -0.038 | defactinib -0.035 | rucaparib -0.017 | [2] -0.003 | encorafenib -0.026 | [3] -0.023 | [4] -0.004 | filanesib -0.025 | zotarolimus 0.041 | idasanutlin 0.004 | alisertib -0.006 | [5] 0.039 | gefitinib 0.003 | [6] 0.022 | lapatinib 0.02 | pictilisib 0.061

PEX19 (UniProt P40855)
inactive: saracatinib 0.018 | sotrastaurin 0.025 | alvocidib 0.006 | Tubastatin A 0.023 | [1] -0.049 | defactinib -0.027 | rucaparib -0.024 | [2] -0.036 | encorafenib -0.035 | [3] 0.018 | [4] 0.044 | filanesib 0.041 | zotarolimus -0.006 | idasanutlin 0.02 | alisertib -0.027 | [5] -0.043 | gefitinib -0.009 | [6] 0.03 | lapatinib 0.034 | pictilisib -0.005

PFDN5 (UniProt Q99471)
inactive: saracatinib 0.02 | sotrastaurin -0.026 | alvocidib -0.054 | Tubastatin A 0.061 | [1] -0.003 | defactinib -0.035 | rucaparib -0.024 | [2] 0.006 | encorafenib -0.029 | [3] -0.124 | [4] 0.086 | filanesib -0.032 | zotarolimus 0.077 | idasanutlin -0.034 | alisertib -0.056 | [5] -0.144 | gefitinib -0.004 | [6] -0.02 | lapatinib 0.014 | pictilisib -0.067

PGS1 (UniProt Q32NB8)
inactive: saracatinib -0.066 | sotrastaurin -0.057 | alvocidib -0.048 | Tubastatin A 0.013 | [1] -0.028 | defactinib -0.199 | rucaparib -0.065 | [2] 0.06 | encorafenib 0.072 | [3] -0.014 | [4] -0.075 | filanesib -0.031 | zotarolimus -0.095 | idasanutlin -0.014 | alisertib -0.247 | [5] 0.001 | gefitinib 0.1 | [6] 0.089 | lapatinib -0.041 | pictilisib 0.005
